We go through 4 sequences from paper PMC4538796.

Sequences of proteins named here, by UniProt entry; tags and fusion partners are left off. A change or cut given only in a name is not applied to a line headed by its entry.
UniProt P03069: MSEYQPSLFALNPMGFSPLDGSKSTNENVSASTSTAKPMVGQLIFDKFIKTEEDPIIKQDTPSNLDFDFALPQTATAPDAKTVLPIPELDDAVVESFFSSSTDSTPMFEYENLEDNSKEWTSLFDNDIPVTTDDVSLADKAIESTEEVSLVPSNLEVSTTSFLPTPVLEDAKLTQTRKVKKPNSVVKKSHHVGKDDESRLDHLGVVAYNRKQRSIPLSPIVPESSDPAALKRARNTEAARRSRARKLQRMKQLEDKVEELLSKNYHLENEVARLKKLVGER

The exact form of at least one protein or probe is not confirmed. For some of these results: A negative result means that nothing was seen under these conditions.

For series [1], the system named is GAGAH (GAGA zinc finger/AT-Hook conjugate). In words: EMSA. The conditions noted are these: EMSA: 75 nM dsDNA, rt (GAGAH), 10% native PAGE, 0.5x TBE, 20 C.
Series [2] addresses brH (GCN4 basic region/AT-Hook conjugate) (UniProt P03069). In words: EMSA. Conditions: 75 nM DNA, EMSA: 75 nM dsDNA, rt (GAGAH), 10% native PAGE, 0.5x TBE, 20 C. For orientation: Mobility shift assays separate free from complexed probe on a gel.
Series [3] shares this target. In words: CD. The conditions noted are these: 5 uM peptide, 1 equiv DNA, phosphate pH 7.5, helix induction; CD: phosphate pH 7.5.
The mark [4] stands for this setting: up to 1000 nM peptide, no stable complex, barely any nonspecific complex.

For the sequence “CGCGTCATAATTCGCGACGC (double strand) [AT·CG]”, in series [1] (setting [4]), the binding result was “no binding”.
As to “CGCGTCATAATTGAGAGCGC (double strand) [AP1hs·AT = AT·GAGA]”, the binding result is “binds” in series [1] (0-1000 nM peptide, 75 nM DNA); “binds” in series [2] (0-1000 nM peptide); “binds” in series [3].
Consider “CGCGTCATCAGCGAGAGCGC (double strand) [AP1hs·GC = GC·GAGA]”, for which the binding result in series [1] (setting [4]) and in series [2] (up to 1000 nM peptide) was “no binding” each time.
As to “GACGGAATTTGAGAGCGTCG (double strand) [GC·AT]”, in series [2] (up to 1000 nM peptide), the binding result is given as “no binding”.
